Experimental data reported in paper PMC9604145.
No constants are given. Whether binding was seen depends on the method and setting. Some binding calls cover weakened binding; strength is not graded here.

Protein sequences, listed by entry. Tags and fused reporters are not part of them. Lines headed by an entry give the natural chain unless they say otherwise; changes in a name come on top.
UniProt P31266: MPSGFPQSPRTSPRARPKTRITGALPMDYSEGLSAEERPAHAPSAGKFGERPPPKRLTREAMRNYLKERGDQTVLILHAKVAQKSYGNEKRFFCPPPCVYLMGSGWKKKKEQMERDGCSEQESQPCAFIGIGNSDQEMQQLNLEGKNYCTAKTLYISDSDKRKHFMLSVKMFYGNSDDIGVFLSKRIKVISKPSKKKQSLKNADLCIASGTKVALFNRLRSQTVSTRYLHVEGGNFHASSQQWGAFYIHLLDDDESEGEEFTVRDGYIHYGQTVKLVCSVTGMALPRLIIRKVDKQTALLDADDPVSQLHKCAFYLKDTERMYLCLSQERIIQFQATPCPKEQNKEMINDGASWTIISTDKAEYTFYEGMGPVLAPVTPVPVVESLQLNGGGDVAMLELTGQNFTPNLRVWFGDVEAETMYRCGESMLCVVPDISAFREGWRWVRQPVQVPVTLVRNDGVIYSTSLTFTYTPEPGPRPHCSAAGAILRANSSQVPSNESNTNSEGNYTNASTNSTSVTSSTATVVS

Target: T1, RITA1 (pEG202 two-hybrid construct) (UniProt Q96K30)
T1 sequence: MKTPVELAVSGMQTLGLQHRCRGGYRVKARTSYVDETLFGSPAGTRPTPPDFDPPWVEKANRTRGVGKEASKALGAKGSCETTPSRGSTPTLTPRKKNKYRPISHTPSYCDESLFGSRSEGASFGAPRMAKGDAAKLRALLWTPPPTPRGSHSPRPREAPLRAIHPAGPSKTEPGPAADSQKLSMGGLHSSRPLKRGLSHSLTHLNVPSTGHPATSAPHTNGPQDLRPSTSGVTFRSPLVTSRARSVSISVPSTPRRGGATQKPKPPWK
Assay: two-hybrid; Golemis-Brent hybrid system, EGY48 yeast cells; Rbpj constructs in pJG4-5 (transactivation domain), partners in pEG202 (LexA DNA binding); performed twice and in triplicate

Row | binding | Substance
1 | binds | murine Rbpj, wildtype (pJG4-5 two-hybrid construct) (from UniProt P31266 1-526)
2 | no binding | murine Rbpj^FAL (F261A, A284V, L388A), pJG4-5 two-hybrid construct (from UniProt P31266 1-526)
3 | no binding | murine Rbpj^EEFAL (E259A, E260A, F261A, A284V, L388A), pJG4-5 two-hybrid construct (from UniProt P31266 1-526)
